Results as given in the supplement of paper PMC10849652.
The list shows a part of the results.

Chains of the proteins cited; added tags and fusions are not shown. Lines headed by an entry give the natural chain unless they say otherwise; changes in a name come on top.
UniProt Q6ZS86: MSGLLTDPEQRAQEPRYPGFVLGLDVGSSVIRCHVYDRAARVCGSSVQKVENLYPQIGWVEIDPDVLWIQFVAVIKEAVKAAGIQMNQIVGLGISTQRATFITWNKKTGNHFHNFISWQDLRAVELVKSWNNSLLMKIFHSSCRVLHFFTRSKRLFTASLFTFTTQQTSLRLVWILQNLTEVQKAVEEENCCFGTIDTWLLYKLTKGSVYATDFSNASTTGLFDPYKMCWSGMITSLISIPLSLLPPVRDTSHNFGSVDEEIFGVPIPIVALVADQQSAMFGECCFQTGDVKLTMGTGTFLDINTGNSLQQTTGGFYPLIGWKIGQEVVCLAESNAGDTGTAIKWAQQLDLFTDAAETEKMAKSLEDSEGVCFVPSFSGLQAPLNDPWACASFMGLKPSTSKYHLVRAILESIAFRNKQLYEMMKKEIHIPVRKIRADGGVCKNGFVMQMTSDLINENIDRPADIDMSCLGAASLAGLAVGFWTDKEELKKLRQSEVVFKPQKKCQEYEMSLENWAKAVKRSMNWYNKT
UniProt Q92805: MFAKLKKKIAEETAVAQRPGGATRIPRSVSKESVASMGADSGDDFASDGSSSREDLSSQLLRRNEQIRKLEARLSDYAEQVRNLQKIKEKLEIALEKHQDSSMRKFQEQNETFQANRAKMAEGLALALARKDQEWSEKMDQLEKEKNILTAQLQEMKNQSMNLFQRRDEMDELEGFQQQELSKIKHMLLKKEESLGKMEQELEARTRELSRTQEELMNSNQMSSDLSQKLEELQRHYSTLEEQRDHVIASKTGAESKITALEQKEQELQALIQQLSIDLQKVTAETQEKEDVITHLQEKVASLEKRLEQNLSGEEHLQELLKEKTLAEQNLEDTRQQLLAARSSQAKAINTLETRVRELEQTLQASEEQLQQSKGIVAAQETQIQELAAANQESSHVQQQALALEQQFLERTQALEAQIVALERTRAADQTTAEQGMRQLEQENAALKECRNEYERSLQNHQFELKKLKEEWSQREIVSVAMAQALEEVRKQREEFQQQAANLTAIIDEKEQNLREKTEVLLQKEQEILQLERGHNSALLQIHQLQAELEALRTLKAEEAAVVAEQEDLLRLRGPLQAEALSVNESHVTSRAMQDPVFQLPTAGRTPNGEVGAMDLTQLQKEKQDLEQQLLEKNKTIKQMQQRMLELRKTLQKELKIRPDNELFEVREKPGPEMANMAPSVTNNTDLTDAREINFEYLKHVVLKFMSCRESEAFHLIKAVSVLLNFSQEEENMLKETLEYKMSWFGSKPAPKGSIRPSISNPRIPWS
UniProt Q4ZG55: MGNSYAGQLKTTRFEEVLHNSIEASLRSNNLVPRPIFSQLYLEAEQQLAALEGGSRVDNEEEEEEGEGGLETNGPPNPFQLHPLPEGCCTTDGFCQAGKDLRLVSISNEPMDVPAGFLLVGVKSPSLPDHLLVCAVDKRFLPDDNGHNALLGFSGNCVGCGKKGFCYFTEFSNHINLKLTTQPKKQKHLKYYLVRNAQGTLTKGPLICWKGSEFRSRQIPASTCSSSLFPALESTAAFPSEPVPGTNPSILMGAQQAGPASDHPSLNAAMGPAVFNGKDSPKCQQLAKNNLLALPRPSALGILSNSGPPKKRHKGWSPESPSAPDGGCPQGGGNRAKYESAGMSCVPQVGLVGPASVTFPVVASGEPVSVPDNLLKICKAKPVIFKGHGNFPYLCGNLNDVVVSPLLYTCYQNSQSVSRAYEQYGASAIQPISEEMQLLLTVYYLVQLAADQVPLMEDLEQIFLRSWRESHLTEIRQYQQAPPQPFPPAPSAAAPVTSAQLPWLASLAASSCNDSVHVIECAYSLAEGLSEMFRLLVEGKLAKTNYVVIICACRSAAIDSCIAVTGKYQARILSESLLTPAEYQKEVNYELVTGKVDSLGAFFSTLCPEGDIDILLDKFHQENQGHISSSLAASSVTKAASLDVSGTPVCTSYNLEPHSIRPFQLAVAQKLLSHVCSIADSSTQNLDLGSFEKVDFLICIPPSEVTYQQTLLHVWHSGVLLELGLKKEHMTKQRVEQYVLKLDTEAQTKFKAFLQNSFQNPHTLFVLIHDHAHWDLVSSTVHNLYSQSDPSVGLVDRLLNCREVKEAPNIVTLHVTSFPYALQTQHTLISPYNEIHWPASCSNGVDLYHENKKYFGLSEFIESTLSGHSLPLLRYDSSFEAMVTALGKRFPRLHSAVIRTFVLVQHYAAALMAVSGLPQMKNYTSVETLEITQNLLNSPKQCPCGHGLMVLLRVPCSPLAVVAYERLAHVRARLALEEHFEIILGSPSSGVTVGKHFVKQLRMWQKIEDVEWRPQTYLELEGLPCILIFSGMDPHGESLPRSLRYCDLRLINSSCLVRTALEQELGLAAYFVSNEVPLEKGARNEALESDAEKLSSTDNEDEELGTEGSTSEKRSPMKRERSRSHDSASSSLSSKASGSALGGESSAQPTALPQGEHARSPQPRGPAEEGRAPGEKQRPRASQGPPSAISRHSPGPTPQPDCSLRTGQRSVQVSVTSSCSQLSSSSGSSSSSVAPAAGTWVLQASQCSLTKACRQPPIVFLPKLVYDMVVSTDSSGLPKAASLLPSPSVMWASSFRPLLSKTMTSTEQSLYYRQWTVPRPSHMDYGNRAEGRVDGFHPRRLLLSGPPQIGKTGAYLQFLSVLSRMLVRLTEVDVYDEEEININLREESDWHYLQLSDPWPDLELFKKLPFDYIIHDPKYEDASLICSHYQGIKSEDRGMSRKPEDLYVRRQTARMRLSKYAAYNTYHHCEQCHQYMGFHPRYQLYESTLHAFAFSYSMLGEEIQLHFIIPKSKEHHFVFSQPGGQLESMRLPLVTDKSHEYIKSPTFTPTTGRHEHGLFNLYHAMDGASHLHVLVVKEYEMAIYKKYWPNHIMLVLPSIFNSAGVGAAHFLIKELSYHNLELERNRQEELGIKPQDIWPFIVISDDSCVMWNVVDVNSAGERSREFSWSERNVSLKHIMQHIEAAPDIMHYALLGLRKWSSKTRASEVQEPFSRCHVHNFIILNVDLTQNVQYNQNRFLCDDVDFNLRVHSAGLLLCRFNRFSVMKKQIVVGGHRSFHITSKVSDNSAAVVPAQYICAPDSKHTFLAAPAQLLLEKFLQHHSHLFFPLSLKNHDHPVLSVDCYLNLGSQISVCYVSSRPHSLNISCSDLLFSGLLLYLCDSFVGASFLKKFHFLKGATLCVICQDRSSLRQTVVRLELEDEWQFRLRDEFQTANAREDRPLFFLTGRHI
UniProt Q9BVP2: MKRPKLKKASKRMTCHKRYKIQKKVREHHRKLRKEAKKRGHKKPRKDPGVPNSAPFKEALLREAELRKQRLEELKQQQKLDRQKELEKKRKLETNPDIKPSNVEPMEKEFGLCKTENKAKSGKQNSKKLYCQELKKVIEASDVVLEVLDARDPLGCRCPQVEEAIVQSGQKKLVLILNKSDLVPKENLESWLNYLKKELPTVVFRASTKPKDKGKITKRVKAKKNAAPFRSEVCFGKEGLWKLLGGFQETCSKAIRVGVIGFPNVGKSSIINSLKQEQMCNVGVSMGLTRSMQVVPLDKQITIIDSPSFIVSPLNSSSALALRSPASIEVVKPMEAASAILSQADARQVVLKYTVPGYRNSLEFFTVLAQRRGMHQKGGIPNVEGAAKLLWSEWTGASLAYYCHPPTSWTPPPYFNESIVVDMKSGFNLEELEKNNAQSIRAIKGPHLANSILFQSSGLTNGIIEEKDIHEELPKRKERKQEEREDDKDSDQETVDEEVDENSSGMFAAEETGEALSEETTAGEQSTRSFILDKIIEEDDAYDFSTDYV
UniProt Q9NZD2: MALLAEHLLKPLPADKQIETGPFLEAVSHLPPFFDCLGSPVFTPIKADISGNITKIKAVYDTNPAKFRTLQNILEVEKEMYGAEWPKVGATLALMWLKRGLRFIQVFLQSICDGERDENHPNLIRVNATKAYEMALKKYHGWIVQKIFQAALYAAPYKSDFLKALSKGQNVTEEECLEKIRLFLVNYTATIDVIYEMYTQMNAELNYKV
UniProt Q15743: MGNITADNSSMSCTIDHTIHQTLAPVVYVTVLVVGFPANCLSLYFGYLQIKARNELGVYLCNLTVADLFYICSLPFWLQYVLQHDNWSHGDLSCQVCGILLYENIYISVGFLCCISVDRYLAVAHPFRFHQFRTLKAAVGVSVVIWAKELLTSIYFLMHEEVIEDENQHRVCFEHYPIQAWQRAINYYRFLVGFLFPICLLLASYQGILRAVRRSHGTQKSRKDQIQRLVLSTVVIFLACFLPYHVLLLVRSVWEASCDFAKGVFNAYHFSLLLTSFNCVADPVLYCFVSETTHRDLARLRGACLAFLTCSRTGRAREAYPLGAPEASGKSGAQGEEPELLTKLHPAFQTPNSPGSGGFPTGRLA
UniProt Q9UJJ9: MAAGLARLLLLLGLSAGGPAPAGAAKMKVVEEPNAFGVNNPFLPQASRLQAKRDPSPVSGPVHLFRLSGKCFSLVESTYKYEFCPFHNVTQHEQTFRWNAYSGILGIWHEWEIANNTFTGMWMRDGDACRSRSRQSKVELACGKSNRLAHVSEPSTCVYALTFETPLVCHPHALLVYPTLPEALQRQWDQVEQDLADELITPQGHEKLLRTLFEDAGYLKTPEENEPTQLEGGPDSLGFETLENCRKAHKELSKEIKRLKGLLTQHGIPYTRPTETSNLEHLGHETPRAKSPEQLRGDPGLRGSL
UniProt I6L899: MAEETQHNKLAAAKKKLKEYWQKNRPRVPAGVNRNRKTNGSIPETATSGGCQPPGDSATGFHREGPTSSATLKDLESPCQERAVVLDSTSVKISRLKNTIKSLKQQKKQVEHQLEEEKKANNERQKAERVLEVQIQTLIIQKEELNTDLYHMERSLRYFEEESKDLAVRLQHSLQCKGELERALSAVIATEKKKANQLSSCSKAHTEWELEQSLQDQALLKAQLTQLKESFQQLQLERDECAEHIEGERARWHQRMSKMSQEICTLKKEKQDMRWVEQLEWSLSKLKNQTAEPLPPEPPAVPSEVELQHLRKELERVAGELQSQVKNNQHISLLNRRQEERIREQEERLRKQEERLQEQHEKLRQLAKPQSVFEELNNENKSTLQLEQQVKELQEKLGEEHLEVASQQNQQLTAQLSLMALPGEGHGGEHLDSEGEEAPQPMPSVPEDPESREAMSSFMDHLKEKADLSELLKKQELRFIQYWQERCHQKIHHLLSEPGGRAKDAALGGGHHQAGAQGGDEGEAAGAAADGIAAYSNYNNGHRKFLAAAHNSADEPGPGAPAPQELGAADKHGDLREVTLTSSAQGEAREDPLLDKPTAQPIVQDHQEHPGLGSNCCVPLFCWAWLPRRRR
UniProt P22352, whole entry, looked up: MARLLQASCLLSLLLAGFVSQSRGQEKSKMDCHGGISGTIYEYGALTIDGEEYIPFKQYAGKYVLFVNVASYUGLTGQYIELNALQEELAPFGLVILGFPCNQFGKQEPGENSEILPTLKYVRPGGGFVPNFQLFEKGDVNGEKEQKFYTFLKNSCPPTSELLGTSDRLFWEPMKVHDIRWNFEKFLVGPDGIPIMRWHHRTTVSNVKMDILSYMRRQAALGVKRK
UniProt Q13227: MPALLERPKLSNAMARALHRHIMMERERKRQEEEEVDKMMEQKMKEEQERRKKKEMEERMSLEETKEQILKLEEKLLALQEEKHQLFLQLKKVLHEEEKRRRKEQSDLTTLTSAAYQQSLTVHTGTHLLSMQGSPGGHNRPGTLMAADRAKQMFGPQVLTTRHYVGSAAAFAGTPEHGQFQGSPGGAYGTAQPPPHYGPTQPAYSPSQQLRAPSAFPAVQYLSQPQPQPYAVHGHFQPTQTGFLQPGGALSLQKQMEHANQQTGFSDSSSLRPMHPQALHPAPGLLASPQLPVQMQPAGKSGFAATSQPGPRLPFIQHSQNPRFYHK
UniProt Q8NBJ4: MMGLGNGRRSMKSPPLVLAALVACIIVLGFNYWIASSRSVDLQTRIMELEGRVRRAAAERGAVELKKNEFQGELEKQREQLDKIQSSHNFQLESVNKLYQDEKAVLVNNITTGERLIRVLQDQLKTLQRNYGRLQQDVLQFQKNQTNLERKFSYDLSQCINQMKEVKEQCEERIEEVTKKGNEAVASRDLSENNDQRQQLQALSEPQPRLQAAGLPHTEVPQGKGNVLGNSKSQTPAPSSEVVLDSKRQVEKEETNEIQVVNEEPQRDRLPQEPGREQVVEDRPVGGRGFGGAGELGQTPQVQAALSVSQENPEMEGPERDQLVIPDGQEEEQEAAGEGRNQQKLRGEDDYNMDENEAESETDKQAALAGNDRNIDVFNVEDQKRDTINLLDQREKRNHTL
UniProt Q9HCN6: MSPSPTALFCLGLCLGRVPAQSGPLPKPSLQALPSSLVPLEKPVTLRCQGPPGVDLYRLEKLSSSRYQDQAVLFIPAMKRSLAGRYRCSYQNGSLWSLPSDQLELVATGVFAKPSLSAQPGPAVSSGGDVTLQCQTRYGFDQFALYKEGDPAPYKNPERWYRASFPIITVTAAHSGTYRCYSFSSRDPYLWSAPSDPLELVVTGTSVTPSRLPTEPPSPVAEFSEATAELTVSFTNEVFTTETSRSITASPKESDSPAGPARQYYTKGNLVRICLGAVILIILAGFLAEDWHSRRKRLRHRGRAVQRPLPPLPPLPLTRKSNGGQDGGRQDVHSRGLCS

Each target was assayed with COc1cc(C(=O)O)ccc1NC(=O)[C@@H]1N[C@@H](CC(C)(C)C)[C@](C#N)(c2ccc(Cl)cc2F)[C@H]1c1cccc(Cl)c1F [idasanutlin] (assay: log2 fold change, soluble protein after heating vs DMSO (PISA); higher = thermal stabilisation; K562 cells, 10 uM, 30 min; active = over 0.2 and 3.5 SD of the protein, either way, in both replicates (recomputed)).
How it was run: (§1)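 For each measurement, 10 μM compound was applied for 30 min to K562 cells at 2×10^6 cells/mL. Aliquots were heated for 3 min across 48°C-58°C, pooled, and extracted in PBS with 0.5% NP-40 at 4°C; the supernatant after 21,000xg for 90 min was soluble protein. This was quantified by TMTpro 16plex LC-MS/MS with channel sums equalised, and thermal stability was reported relative to control samples from duplicates, on a log2 fold-change scale.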

log2 fold change, inactive:
GPD1 (UniProt P21695) -0.289
GPAA1 (UniProt E9PLG8) -0.093
GLS2 (UniProt Q9UI32) 0.086
GIT2 (UniProt Q14161) 0.108
GK5 (UniProt Q6ZS86) -0.034
GOLGA1 (UniProt Q92805) 0.02
GREB1 (UniProt Q4ZG55) -0.023
GLE1 (UniProt Q53GS7) 0.419
GNL3 (UniProt Q9BVP2) -0.212
GOPC (UniProt Q9HD26) 0.007
GOLPH3L (UniProt Q9H4A5) -0.001
GLT8D1 (UniProt Q68CQ7) -0.211
GLTP (UniProt Q9NZD2) -0.044
GPAM (UniProt Q9HCL2) 0.037
GPR68 (UniProt Q15743) 0.161
GPT2 (UniProt Q8TD30) -0.092
GNPTG (UniProt Q9UJJ9) -0.01
GOLGA8R (UniProt I6L899) 0.022
GPX3 (UniProt P22352) 0.011

These targets were tested with COc1cc(Nc2ncc3c(n2)-c2ccc(Cl)cc2C(c2c(F)cccc2OC)=NC3)ccc1C(=O)O [alisertib] in the same assay as above.
How it was run: as §1

log2 fold change, inactive:
GPD1 (UniProt P21695) 0.077
GPAA1 (UniProt E9PLG8) -0.05
GIT2 (UniProt Q14161) 0.168
GPS2 (UniProt Q13227) -0.067
GOLM1 (UniProt Q8NBJ4) -0.096
GNL3 (UniProt Q9BVP2) -0.12
GP6 isoform 3 (UniProt Q9HCN6) -0.288
GOPC (UniProt Q9HD26) -0.026
GOLPH3L (UniProt Q9H4A5) 0.239
GLTP (UniProt Q9NZD2) 0.335
GINM1 (UniProt Q9NU53) -0.417
GPS1 (UniProt A8K070) -0.043
GNL2 (UniProt Q13823) -0.177
GPT2 (UniProt Q8TD30) -0.407
GNPTG (UniProt Q9UJJ9) 0.016
GOSR1 (UniProt E9PCW1) -0.177
GOLGA6B (UniProt A6NDN3) -0.092
